Source: patent US20250249056A1, “CANCER THERAPIES COMPRISING A NUCLEAR EXPORT INHIBITOR AND AN ONCOLYTIC VIRUS” (priority 2022, published 2025)
Read-outs that look alike come from different tables or passages of the source. The source gives many values for each of these; only a part stands here.

Test system: Colo205 cells
Assay type: cell-based, human

`O=C(/C=C\n1cnc(-c2cc(C(F)(F)F)cc(C(F)(F)F)c2)n1)NNc1cnccn1` [selinexor] was tested, and the “Differential protein expression, selinexor-treated nucleus vs control nucleus” value (“Differential protein expression” below) (protein MT-ND4 (P03905)) was 0.448, the “Differential protein expression” value (protein MYB (P10242)) was 0.457 and the “Differential protein expression” value (protein MYO15B (Q96JP2)) was 0.468. For the same compound, the “Differential protein expression” value (protein NADSYN1 (Q6IA69)) was 0.01, the “Differential protein expression” value (protein NAGA (P17050)) was 100 and the “Differential protein expression” value (protein NBR1 (Q14596)) was 4.965. For the same compound, the “Differential protein expression” value (protein NDC1 (Q9BTX1)) was 0.469, the “Differential protein expression” value (protein NDUFA13 (Q9P0J0)) was 0.458 and the “Differential protein expression” value (protein NDUFAF4 (Q9P032)) was 0.428. The “Differential protein expression” value (protein NDUFB6 (O95139)) was 0.46, the “Differential protein expression” value (protein NDUFB10 (O96000)) was 0.455 and the “Differential protein expression” value (protein NEFH (P12036)) was 2.836. The “Differential protein expression” value (protein NFXL1 (Q6ZNB6)) was 0.432, the “Differential protein expression” value (protein NIPSNAP1 (Q9BPW8)) was 2.979 and the “Differential protein expression” value (protein NIPSNAP2 (O75323)) was 3.521. For the same compound, the “Differential protein expression” value (protein NOB1 (Q9ULX3)) was 3.222, the “Differential protein expression” value (protein NUDCD2 (Q8WVJ2)) was 0.448 and the “Differential protein expression” value (protein ORMDL2 (Q53FV1)) was 0.428. For the same compound, the “Differential protein expression” value (protein PAM16 (Q9Y3D7)) was 0.467, the “Differential protein expression” value (protein PARL (Q9H300)) was 0.39 and the “Differential protein expression” value (protein PCM1 (Q15154)) was 0.441. For the same compound, the “Differential protein expression” value (protein PDHA1 (P08559)) was 0.363, the “Differential protein expression” value (protein PDHA2 (P29803)) was 0.376 and the “Differential protein expression” value (protein PDHB (P11177)) was 0.34. The “Differential protein expression” value (protein PDHX (O00330)) was 0.384, the “Differential protein expression” value (protein PEX14 (O75381)) was 0.428 and the “Differential protein expression” value (protein PEX19 (P40855)) was 100. For the same compound, the “Differential protein expression” value (protein PHACTR4 (Q8IZ21)) was 0.01, the “Differential protein expression” value (protein PHB1 (P35232)) was 0.37 and the “Differential protein expression” value (protein PHB2 (Q99623)) was 0.39. For the same compound, the “Differential protein expression” value (protein PIGO (Q8TEQ8)) was 0.467, the “Differential protein expression” value (protein PIWIL1 (Q96J94)) was 0.362 and the “Differential protein expression” value (protein PLK1 (P53350)) was 0.275. The “Differential protein expression” value (protein POLE2 (P56282)) was 0.412, the “Differential protein expression” value (protein POLE (Q07864)) was 0.403 and the “Differential protein expression” value (protein POLRMST (O00411)) was 0.409. For the same compound, the “Differential protein expression” value (protein PPARG (P37231)) was 0.432, the “Differential protein expression” value (protein PRC1 (O43663)) was 0.299 and the “Differential protein expression” value (protein PRKCI (P41743)) was 3.735. For the same compound, the “Differential protein expression” value (protein PRSS2 (P07478)) was 0.437, the “Differential protein expression” value (protein PSAT1 (Q9Y617)) was 0.464 and the “Differential protein expression” value (protein PTER (Q96BW5)) was 100. For the same compound, the “Differential protein expression” value (protein PTPN12 (Q05209)) was 100, the “Differential protein expression” value (protein PTPN23 (Q9H3S7)) was 0.376 and the “Differential protein expression” value (protein PTPRJ (Q12913)) was 0.01. For the same compound, the “Differential protein expression” value (protein PXMP2 (Q9NR77)) was 0.372, the “Differential protein expression” value (protein RAB9A (P51151)) was 100 and the “Differential protein expression” value (protein RACGAP1 (Q9H0H5)) was 0.428. For the same compound, the “Differential protein expression” value (protein RBCK1 (Q9BYM8)) was 0.334, the “Differential protein expression” value (protein RETREG3 (Q86VR2)) was 0.01 and the “Differential protein expression” value (protein RIOK2 (Q9BVS4)) was 3.696. The “Differential protein expression” value (protein RNASET2 (O00584)) was 0.01, the “Differential protein expression” value (protein RNF14 (Q9UBS8)) was 0.01 and the “Differential protein expression” value (protein RPL36AL (Q969Q0)) was 13.627. For the same compound, the “Differential protein expression” value (protein RPS29 (P62273)) was 0.468, the “Differential protein expression” value (protein RRM2 (P31350)) was 0.34 and the “Differential protein expression” value (protein S100A7 (P31151)) was 2.93. For the same compound, the “Differential protein expression” value (protein SCD (O00767)) was 0.275, the “Differential protein expression” value (protein SDC1 (P18827)) was 6.105 and the “Differential protein expression” value (protein SDHC (Q99643)) was 0.406. For the same compound, the “Differential protein expression” value (protein SERPINB12 (Q96P63)) was 3.163, the “Differential protein expression” value (protein SFT2D3 (Q58719)) was 0.01 and the “Differential protein expression” value (protein SFXN4 (Q6P4A7)) was 0.32. The “Differential protein expression” value (protein SH3PXD2B (A1X283)) was 100, the “Differential protein expression” value (protein SLC1A4 (P43007)) was 0.289 and the “Differential protein expression” value (protein SLC1A5 (Q15758)) was 0.457. The “Differential protein expression” value (protein SLC7A1 (P30825)) was 0.314, the “Differential protein expression” value (protein SLC12A2 (P55011)) was 0.459 and the “Differential protein expression” value (protein SLC25A1 (P53007)) was 0.445. For the same compound, the “Differential protein expression” value (protein SLC25A33 (Q9BSK2)) was 0.442, the “Differential protein expression” value (protein SLC25A46 (Q96AG3)) was 100 and the “Differential protein expression” value (protein SLC29A1 (Q99808)) was 0.316. For the same compound, the “Differential protein expression” value (protein SLC30A1 (Q9Y6M5)) was 100, the “Differential protein expression” value (protein SLC38A2 (Q96QD8)) was 0.01 and the “Differential protein expression” value (protein SLC50A1 (Q9BRV3)) was 0.431. For the same compound, the “Differential protein expression” value (protein SPINT1 (O43278)) was 3.797, the “Differential protein expression” value (protein SQSTM1 (Q13501)) was 14.425 and the “Differential protein expression” value (protein ST14 (Q9Y5Y6)) was 3.067. For the same compound, the “Differential protein expression” value (protein STAM2 (O75886)) was 0.01, the “Differential protein expression” value (protein STING1 (Q86WV6)) was 0.01 and the “Differential protein expression” value (protein SYVN1 (Q86TM6)) was 0.01. The “Differential protein expression” value (protein TBC1D5 (Q92609)) was 0.366, the “Differential protein expression” value (protein TBK1 (Q9UHD2)) was 100 and the “Differential protein expression” value (protein TCF7 (P36402)) was 0.411. For the same compound, the “Differential protein expression” value (protein TFAP4 (Q01664)) was 0.279, the “Differential protein expression” value (protein THEM6 (Q8WUY1)) was 0.415 and the “Differential protein expression” value (protein TIMELESS (Q9UNS1)) was 0.2. The “Differential protein expression” value (protein TIMM17A (Q99595)) was 0.454, the “Differential protein expression” value (protein TIMM17B (O60830)) was 0.263 and the “Differential protein expression” value (protein TJP3 (O95049)) was 0.45. For the same compound, the “Differential protein expression” value (protein TK1 (P04183)) was 0.407, the “Differential protein expression” value (protein TMEM14A (Q9Y6G1)) was 0.454 and the “Differential protein expression” value (protein TMEM63A (O94886)) was 0.449. For the same compound, the “Differential protein expression” value (protein TMEM201 (Q5SNT2)) was 0.416, the “Differential protein expression” value (protein TNC (P24821)) was 0.44 and the “Differential protein expression” value (protein TPX2 (Q9ULW0)) was 0.397. For the same compound, the “Differential protein expression” value (protein TSR1 (Q2NL82)) was 4.385, the “Differential protein expression” value (protein TTYH3 (Q9C0H2)) was 0.465 and the “Differential protein expression” value (protein UBAC2 (Q8NBM4)) was 0.457. The “Differential protein expression” value (protein UBE2G2 (P60604)) was 0.425, the “Differential protein expression” value (protein VETFL (Q9Q8K4)) was 100 and the “Differential protein expression” value (protein VKORC1L1 (Q8N0U8)) was 0.446. The “Differential protein expression” value (protein VTA1 (Q9NP79)) was 0.387, the “Differential protein expression” value (protein YBX2 (Q9Y2T7)) was 0.224 and the “Differential protein expression” value (protein YBX3 (P16989)) was 0.467. For the same compound, the “Differential protein expression” value (protein YTHDF2 (Q9Y5A9)) was 0.415, the “Differential protein expression” value (protein ZFYVE26 (Q68DK2)) was 0.083 and the “Differential protein expression” value (protein m003.2L (Q77P93)) was 100. The “Differential protein expression” value (protein m013L (Q9Q8S8)) was 100, the “Differential protein expression” value (protein m026R (Q9Q8S0)) was 3.612 and the “Differential protein expression” value (protein m043L (Q9Q8Q3)) was 100. The “Differential protein expression” value (protein m045L (Q9Q8Q1)) was 100, the “Differential protein expression” value (protein m047R (B2CWF4)) was 0.403 and the “Differential protein expression” value (protein m054R (B2CWG1)) was 100. For the same compound, the “Differential protein expression” value (protein m054R (K4J9W4)) was 100, the “Differential protein expression” value (protein m057L (B2CWG4)) was 0.01 and the “Differential protein expression” value (protein m059R (E2CZV4)) was 0.01. For the same compound, the “Differential protein expression” value (protein m061R (B2CWG8)) was 0.01, the “Differential protein expression” value (protein m077L (B2CWI4)) was 0.01 and the “Differential protein expression” value (protein m078R (D2WN05)) was 100. The “Differential protein expression” value (protein m086L (B2CWJ3)) was 0.01, the “Differential protein expression” value (protein m086L (E2CZY1)) was 0.01 and the “Differential protein expression” value (protein m094R (Q9Q8K6)) was 0.01. For the same compound, the “Differential protein expression” value (protein m096L (B2CWK3)) was 100, the “Differential protein expression” value (protein m097R (Q9Q8K3)) was 0.01 and the “Differential protein expression” value (protein m122R (Q9Q8H9)) was 100. For the same compound, the “Differential protein expression” value (protein m126R (E2CZL5)) was 0.428, the “Differential protein expression” value (protein m140R (Q9Q8G2)) was 0.425 and the “Differential protein expression” value (protein m156R (B2CWR1)) was 100.
